# Experimental data reported in the supplement of paper PMC8728848.
# The list shows a part of the results.
# Legend:
# Assay in all cases: glycan array binding signal (z-score within array); higher = stronger binding
# Settings in all cases: glycan notation: IUPAC condensed, linker removed
# [1] = biological target: Gal(b1-3)GalNAc(b1-3)Gal(a1-4)Gal(b1-4)Glc
# In short: (§1)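 The binding signal is a Z-score computed within each array. Data were drawn from 3228 arrays in the Consortium for Functional Glycomics database, restricted to those with a known protein sequence. Scores were averaged over arrays of the same protein sequence at different concentrations or buffers, and over linkers, and negative values can be taken as non-binding.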
# [2] = biological target: Gal(b1-3)GalNAc(b1-4)Gal(b1-4)Glc
# In short: as §1
# [3] = biological target: Gal(b1-3)GalNAc(b1-4)[Neu5Ac(a2-3)]Gal(b1-4)Glc
# In short: as §1
# Gal(b1-3)GlcNAc = biological target: Gal(b1-3)GlcNAc
# In short: as §1
# [4] = biological target: Gal(b1-3)GlcNAc(a1-3)Gal(b1-4)GlcNAc
# In short: as §1
# [5] = biological target: Gal(b1-3)GlcNAc(a1-6)Gal(b1-4)GlcNAc
# In short: as §1
# Gal(b1-3)GlcNAc(b1-2)Man = biological target: Gal(b1-3)GlcNAc(b1-2)Man
# In short: as §1
# [6] = biological target: Gal(b1-3)GlcNAc(b1-2)Man(a1-3)[Gal(b1-3)GlcNAc(b1-2)Man(a1-6)]Man(b1-4)GlcNAc(b1-4)GlcNAc
# In short: as §1
# [7] = biological target: Gal(b1-3)GlcNAc(b1-2)Man(a1-3)[Gal(b1-3)GlcNAc(b1-2)Man(a1-6)]Man(b1-4)GlcNAc(b1-4)[Fuc(a1-6)]GlcNAc
# In short: as §1
# [8] = biological target: Gal(b1-3)GlcNAc(b1-2)Man(a1-3)[GlcNAc(b1-4)][Gal(b1-3)GlcNAc(b1-2)Man(a1-6)]Man(b1-4)GlcNAc(b1-4)GlcNAc
# In short: as §1
# [9] = biological target: Gal(b1-3)GlcNAc(b1-2)[Gal(b1-3)GlcNAc(b1-6)]Man(a1-6)[Gal(b1-3)GlcNAc(b1-2)Man(a1-3)]Man(b1-4)GlcNAc(b1-4)GlcNAc
# In short: as §1
# [10] = biological target: Gal(b1-3)GlcNAc(b1-3)Gal(b1-3)GlcNAc
# In short: as §1
# [11] = biological target: Gal(b1-3)GlcNAc(b1-3)Gal(b1-4)Glc
# In short: as §1
# [12] = biological target: Gal(b1-3)GlcNAc(b1-3)Gal(b1-4)GlcNAc
# In short: as §1
# [13] = biological target: Gal(b1-3)GlcNAc(b1-3)Gal(b1-4)GlcNAc(b1-2)Man(a1-3)[Gal(b1-3)GlcNAc(b1-3)Gal(b1-4)GlcNAc(b1-2)Man(a1-6)]Man(b1-4)GlcNAc(b1-4)GlcNAc
# In short: as §1
# [14] = biological target: Gal(b1-3)GlcNAc(b1-3)Gal(b1-4)GlcNAc(b1-2)[Gal(b1-3)GlcNAc(b1-3)Gal(b1-4)GlcNAc(b1-6)]Man(a1-6)[Gal(b1-3)GlcNAc(b1-3)Gal(b1-4)GlcNAc(b1-2)Man(a1-3)]Man(b1-4)GlcNAc(b1-4)[Fuc(a1-6)]GlcNAc
# In short: as §1
# [15] = biological target: Gal(b1-3)GlcNAc(b1-3)Gal(b1-4)GlcNAc(b1-3)Gal(b1-4)GlcNAc(b1-2)[Gal(b1-3)GlcNAc(b1-3)Gal(b1-4)GlcNAc(b1-3)Gal(b1-4)GlcNAc(b1-6)]Man(a1-6)[Gal(b1-3)GlcNAc(b1-3)Gal(b1-4)GlcNAc(b1-3)Gal(b1-4)GlcNAc(b1-2)Man(a1-3)]Man(b1-4)GlcNAc(b1-4)[Fuc(a1-6)]GlcNAc
# In short: as §1
# [16] = biological target: Gal(b1-3)GlcNAc(b1-3)Gal(b1-4)GlcNAc(b1-6)[Gal(b1-3)GlcNAc(b1-3)]Gal(b1-4)Glc
# In short: as §1
# [17] = biological target: Gal(b1-3)GlcNAc(b1-3)Gal(b1-4)[Fuc(a1-3)]GlcNAc
# In short: as §1
# [18] = biological target: Gal(b1-3)GlcNAc(b1-3)Gal(b1-4)[Fuc(a1-3)]GlcNAc(b1-6)[Gal(b1-3)GlcNAc(b1-3)]Gal(b1-4)Glc
# In short: as §1
# [19] = biological target: Gal(b1-3)GlcNAc(b1-3)GalNAc
# In short: as §1
# [20] = biological target: Gal(b1-3)GlcNAc(b1-6)Gal(b1-4)GlcNAc
# In short: as §1
# [21] = biological target: Gal(b1-3)GlcNAc(b1-6)GalNAc
# In short: as §1
# [22] = biological target: Gal(b1-3)GlcNAc(b1-6)[Gal(b1-3)]GalNAc
# In short: as §1
# Gal(b1-3)GlcNAc6S = biological target: Gal(b1-3)GlcNAc6S
# In short: as §1
# [23] = biological target: Gal(b1-3)[Fuc(a1-4)]GlcNAc
# In short: as §1
# [24] = biological target: Gal(b1-3)[Fuc(a1-4)]GlcNAc(b1-2)Man
# In short: as §1
# [25] = biological target: Gal(b1-3)[Fuc(a1-4)]GlcNAc(b1-2)Man(a1-3)[Gal(b1-3)[Fuc(a1-4)]GlcNAc(b1-2)Man(a1-6)]Man(b1-4)GlcNAc(b1-4)[Fuc(a1-6)]GlcNAc
# In short: as §1
# [26] = biological target: Gal(b1-3)[Fuc(a1-4)]GlcNAc(b1-3)Gal(b1-3)[Fuc(a1-4)]GlcNAc
# In short: as §1
# [27] = biological target: Gal(b1-3)[Fuc(a1-4)]GlcNAc(b1-3)Gal(b1-4)[Fuc(a1-3)]GlcNAc
# In short: as §1
# [28] = biological target: Gal(b1-3)[Fuc(a1-4)]GlcNAc(b1-6)GalNAc
# In short: as §1
# [29] = biological target: Gal(b1-3)[GlcNAc(b1-6)]GalNAc
# In short: as §1
# [30] = biological target: Gal(b1-3)[Neu5Ac(a2-6)]GalNAc
# In short: as §1
# [31] = biological target: Gal(b1-3)[Neu5Ac(a2-6)]GlcNAc(b1-4)Gal(b1-4)Glc
# In short: as §1
# [32] = biological target: Gal(b1-3)[Neu5Ac(b2-6)]GalNAc
# In short: as §1
# Gal(b1-4)Gal = biological target: Gal(b1-4)Gal
# In short: as §1
# [33] = biological target: Gal(b1-4)GalNAc(a1-3)[Fuc(a1-2)]Gal(b1-4)GlcNAc
# In short: as §1
# [34] = biological target: Gal(b1-4)GalNAc(b1-3)[Fuc(a1-2)]Gal(b1-4)GlcNAc
# In short: as §1
binder,measurement,setting,value
PX9961Q-bfa-504-27-504 (Bacteroides fragilis) (protein) NDWLDRKPADGIPSEDAITNYNDALTARTGMYDGIQGNSNATSYYGARMFYYGDVRADDMQARTQGMRSSSCYEMLYTVDDAPNMWNIPYNVIRRANRLIEAINEKKVTDATEAQIGKIYSEALVVRALVHFDLVRIYGMPYTADNGASLGVPVIVKPLERNDLPSRNTVAEVYTQVITDLTDAINSGYLAKDQTPGYINEWAAKALLTRVYLTKGDNENALKVAEDIITNSPYKLWTNEEYVNAWYKSNGAHTNEMIFEVVNASNDDWTDRNGIAYLLNENGYADAIVTKSFMNMLSQDPKDVRIGMVLPAQYDKDLQEEYGDAKIFINKFPADKDDVGEMRLNNLPLLRLSEVYLSAAEAAAKLGGHQDKAAKYLNEIVQRANPEAKAISEADATVERIILERRKEMIGEGQRYFDALRNNETIVRYKDEGDKGYHYSLIKESQSFDRTYFRAILPIPVDETNVNPNLRAQQNPGY,glycan array binding signal (z-score),[1],-0.745
same,glycan array binding signal (z-score),[2],0.437
same,glycan array binding signal (z-score),[3],-0.428
same,glycan array binding signal (z-score),Gal(b1-3)GlcNAc,-0.664
same,glycan array binding signal (z-score),[4],-1.02
same,glycan array binding signal (z-score),[5],-0.85
same,glycan array binding signal (z-score),Gal(b1-3)GlcNAc(b1-2)Man,0.601
same,glycan array binding signal (z-score),[6],3.77
same,glycan array binding signal (z-score),[7],0.143
same,glycan array binding signal (z-score),[8],0.252
same,glycan array binding signal (z-score),[9],0.113
same,glycan array binding signal (z-score),[10],-0.653
same,glycan array binding signal (z-score),[11],0.105
same,glycan array binding signal (z-score),[12],-0.661
same,glycan array binding signal (z-score),[13],1.6
same,glycan array binding signal (z-score),[14],-0.16
same,glycan array binding signal (z-score),[15],-0.127
same,glycan array binding signal (z-score),[16],0.879
same,glycan array binding signal (z-score),[17],0.799
same,glycan array binding signal (z-score),[18],12.8
same,glycan array binding signal (z-score),[19],-0.114
same,glycan array binding signal (z-score),[20],-0.02
same,glycan array binding signal (z-score),[21],0.299
same,glycan array binding signal (z-score),[22],0.989
same,glycan array binding signal (z-score),Gal(b1-3)GlcNAc6S,-0.822
same,glycan array binding signal (z-score),[23],-0.224
same,glycan array binding signal (z-score),[24],0.017
same,glycan array binding signal (z-score),[25],1.1
same,glycan array binding signal (z-score),[26],-0.572
same,glycan array binding signal (z-score),[27],0.392
same,glycan array binding signal (z-score),[28],0.047
same,glycan array binding signal (z-score),[29],-0.541
same,glycan array binding signal (z-score),[30],-0.208
same,glycan array binding signal (z-score),[31],-0.044
same,glycan array binding signal (z-score),[32],-0.578
same,glycan array binding signal (z-score),Gal(b1-4)Gal,-0.849
same,glycan array binding signal (z-score),[33],-1.68
same,glycan array binding signal (z-score),[34],-1.21

# Rewritten with bars between the fields: part of the list above.
binder | measurement | setting | value
PX9961Q-bfa-504-27-504 (Bacteroides fragilis) (protein) NDWLDRKPADGIPSEDAITNYNDALTARTGMYDGIQGNSNATSYYGARMFYYGDVRADDMQARTQGMRSSSCYEMLYTVDDAPNMWNIPYNVIRRANRLIEAINEKKVTDATEAQIGKIYSEALVVRALVHFDLVRIYGMPYTADNGASLGVPVIVKPLERNDLPSRNTVAEVYTQVITDLTDAINSGYLAKDQTPGYINEWAAKALLTRVYLTKGDNENALKVAEDIITNSPYKLWTNEEYVNAWYKSNGAHTNEMIFEVVNASNDDWTDRNGIAYLLNENGYADAIVTKSFMNMLSQDPKDVRIGMVLPAQYDKDLQEEYGDAKIFINKFPADKDDVGEMRLNNLPLLRLSEVYLSAAEAAAKLGGHQDKAAKYLNEIVQRANPEAKAISEADATVERIILERRKEMIGEGQRYFDALRNNETIVRYKDEGDKGYHYSLIKESQSFDRTYFRAILPIPVDETNVNPNLRAQQNPGY | glycan array binding signal (z-score) | [14] | -0.16
same | glycan array binding signal (z-score) | [29] | -0.541
same | glycan array binding signal (z-score) | [32] | -0.578
